Assay results from patent publication US6617118B2, “Monoclonal antibody for analysis and clearance of polyethylene glycol and polyethylene glycol-modified molecules” (priority 1999, dated 2003).

Test system: immobilized AGP3
Experiment: AGP3 sandwich ELISA (AGP3 capture, AGP3-biotin detection)
Assay type: binding

B1: βG-pPEG: β-glucuronidase modified with pPEG (conjugate, UniProt P05804 1-603, looked up)
Beta-glucuronidase: MLRPVETPTREIKKLDGLWAFSLDRENCGIDQRWWESALQESRAIAVPGSFNDQFADADIRNYAGNVWYQREVFIPKGWAGQRIVLRFDAVTHYGKVWVNNQEVMEHQGGYTPFEADVTPYVIAGKSVRITVCVNNELNWQTIPPGMVITDENGKKKQSYFHDFFNYAGIHRSVMLYTTPNTWVDDITVVTHVAQDCNHASVDWQVVANGDVSVELRDADQQVVATGQGTSGTLQVVNPHLWQPGEGYLYELCVTAKSQTECDIYPLRVGIRSVAVKGEQFLINHKPFYFTGFGRHEDADLRGKGFDNVLMVHDHALMDWIGANSYRTSHYPYAEEMLDWADEHGIVVIDETAAVGFNLSLGIGFEAGNKPKELYSEEAVNGETQQAHLQAIKELIARDKNHPSVVMWSIANEPDTRPQGAREYFAPLAEATRKLDPTRPITCVNVMFCDAHTDTISDLFDVLCLNRYYGWYVQSGDLETAEKVLEKELLAWQEKLHQPIIITEYGVDTLAGLHSMYTDMWSEEYQCAWLDMYHRVFDRVSAVVGEQVWNFADFATSQGILRVGGNKKGIFTRDRKPKSAAFLLQKRWTGMNFGEKPQQGGKQ
modifications: pPEG modified
  amount of PEG corresponding to lowest detected concentration: 500 µg
  amount of βG-pPEG corresponding to lowest detected concentration: 2.6 fmol
In PBS
  lowest concentration detected by the assay: ≤ 15 mg/mL
